About 210 (0.4%) of roughly 52,000 sequences were called active.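 The calls were made as follows: active = gene whose silencing raises cell survival under the drug, median off-target-corrected z-score across its silencing RNAs 2 or more; inactive = the rest.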 The list shows a part of the results.

This assay is described as follows: Resistance to Poly (ADP-Ribose) Polymerase inhibitor: Gene Identification via Genome-wide siRNA Screen. The following applies: mouse BRCA2 R2336H ES cells, olaparib, CellTiter-Glo viability; hits give high values. Put shortly: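 Mouse BRCA2 R2336H ES cells were reverse-transfected with siRNA (20 nM final), treated at 48 h with 500 nM olaparib, and read by CellTiter-Glo after 72 h. Scores: MAD-based z per siRNA, median per gene, seed off-target correction.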
For orientation: Cellular ATP, detected with luciferase, serves as a proxy for viable cell number.
Consider GGAGAGAUGGAUACAUUUCTT against Atp5j, for which the z-score was inactive: -0.208.

Regarding “GGCUUUAAGGUGUUUUUCATT against E230025K15”, the z-score is inactive: -0.18.

As to GGUGCUGGAUGAAUUUGGGTT against Zp1, the z-score is inactive: 0.0965.

As to GAGUGAUCUUCCACUUACGTT against BC026645, the z-score was inactive: 0.0486.

With GGAUGCUUGGCUGAAGAACTT against Ptprs, the z-score was inactive: 0.583.

As for GGAAGAUGAUGCUUUCAAATT against Il18, the z-score was inactive: 0.178.

In the case of GGCAAACCUGCUUUCAUGGTT against Smc5l1, the z-score was inactive: -1.09.

In the case of GCCAUUCGUUCUACGAAACTT against D6Wsu176e, the z-score was inactive: -0.135.

Consider GGAAAGAAACUUAAAGUGGTT against Tfdp1, for which the z-score was inactive: -0.184.

Take “GCACUUGCUUCAAGUAAUATT against G431002C21Rik”: the z-score is inactive: 0.202.

On to GGAAUUUUCUACAUGUGUGTT against Lim2, for which the z-score is inactive: 1.12.

GGGAUUUUGUGAUGUCCGCTT against Mmp23: the z-score is inactive: 0.242.

Take GCUAAGACAGAACUCUUCUTT against Nap1l5: the z-score is inactive: 0.334.

For GGAGAGAGAAUGAAAGUCATT against Gm608, the z-score is inactive: -1.16.

GGGUCUGUCAAGAUUGACATT against Fsip1: the z-score is inactive: 3.38.

Regarding GAAACUCUGUGAAUAUAACTT against Zfp97, the z-score is inactive: 1.27.

For the sequence GGACAUCCAUCAUUACUUUTT against Slc26a2, the z-score is inactive: 0.51.

As to CGGGAUUCUAAAAAAAGUGTT against Hibadh, the z-score was inactive: 0.699.

Regarding GGGAACCCUAACAACUUCGTT against Wfdc6, the z-score was inactive: -0.785.

GCCAACAAAGUGAUCGAAGTT against Fkbp10: the z-score was inactive: -0.197.

GGUGUGGAUCUUUCGUAAUTT against Il1f9: the z-score is inactive: -0.166.

Turning to GCCUCGAUUCACCAAGUGUTT against Ghr, the z-score is inactive: 2.31.

Take GGGCAGCAUUUUUCUGAUATT against Mfap3: the z-score was inactive: 0.0408.

Consider GCACAUGGUUAUGGUGAAATT against Cd200r1, for which the z-score is inactive: -0.756.

In the case of GGAGUUCUUUCAGACCUUATT against Cidea, the z-score is inactive: 0.441.

Regarding GCCUCUUAUUUGGUUACGATT against Vmd2l3, the z-score is inactive: -1.04.

Consider CCAUUGUGUUAAUUCAUGGTT against Kcnj15, for which the z-score is inactive: 0.112.

Turning to GCAACUAGCCUGUUCUAUCTT against AI325941, the z-score is inactive: 1.68.

Take GGAGUGCCUUUAGACAUGCTT against Trf3: the z-score is inactive: -0.577.

Source of the values: PubChem BioAssay AID1347423 (Functional Genomics Laboratory (NCATS/FGL), 2020).
